# Laboratory results as given in publication PMC7338535.
# These are yes or no findings as the source states them, for the method shown. Binding can be weak; no strength is given. Where a sequence is shown, tags or fusion partners need not be part of it. For some assays here: Binding seen in cells or lysates may run through a third protein.
# B1: DiB2-split C-terminal fragment, untagged (domain or fragment)
# chain: GPFYGGYNVIALDREYRHALVCGPDRDYLWILSRTPTISDEVKQEMLAVATREGFDVSKFIWVQQPGS
# How the values were obtained:
# [1] = molecular target: DiB2-split N-terminal fragment, His-tagged (UniProt P0A901); assay: crystal structure; DiB2-split, crystals grown at 21 °C in 1.6 M ammonium sulphate, 0.1 M MES, pH 4.5; three split molecules in the asymmetric unit; both purified
# [2] = molecular target: DiB2-split N-terminal fragment, His-tagged (UniProt P0A901); assay: pull-down; His-tagged N-fragment and untagged C-fragment co-expressed in E. coli; immobilized metal ion affinity purification (TALON resin) from the cell-free extract
binder,measurement,setting,value
B1,binding,[1],binds
same,binding,[2],binds
